# Data taken from PMC6925144, “A prospective compound screening contest identified broader inhibitors for Sirtuin 1” (Scientific Reports, 2019).
# Sequences of proteins named here, by UniProt entry; tags and fusion partners are left off. Residues count along the entry.
# UniProt Q96EB6, 2-747 limits assumed: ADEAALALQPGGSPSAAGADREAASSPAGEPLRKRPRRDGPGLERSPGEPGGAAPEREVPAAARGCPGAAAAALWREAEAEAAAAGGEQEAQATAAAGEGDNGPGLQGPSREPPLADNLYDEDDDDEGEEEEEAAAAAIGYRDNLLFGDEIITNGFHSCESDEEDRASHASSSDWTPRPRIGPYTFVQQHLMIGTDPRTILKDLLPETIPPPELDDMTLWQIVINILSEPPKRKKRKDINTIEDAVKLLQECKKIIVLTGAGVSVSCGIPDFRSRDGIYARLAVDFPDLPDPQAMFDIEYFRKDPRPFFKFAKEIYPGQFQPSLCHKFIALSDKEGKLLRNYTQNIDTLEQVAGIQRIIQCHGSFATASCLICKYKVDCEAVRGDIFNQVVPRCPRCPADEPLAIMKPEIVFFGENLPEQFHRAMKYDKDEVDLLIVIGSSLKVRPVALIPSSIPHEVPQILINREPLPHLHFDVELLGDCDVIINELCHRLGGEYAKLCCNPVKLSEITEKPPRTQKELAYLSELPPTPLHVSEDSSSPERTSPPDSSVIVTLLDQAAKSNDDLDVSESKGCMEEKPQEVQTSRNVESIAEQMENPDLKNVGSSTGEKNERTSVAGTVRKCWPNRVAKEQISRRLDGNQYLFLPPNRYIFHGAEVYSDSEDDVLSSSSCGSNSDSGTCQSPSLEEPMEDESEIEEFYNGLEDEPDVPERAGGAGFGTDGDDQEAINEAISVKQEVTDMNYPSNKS
# Whole data set: some 3,200 compounds, median “TSA(with NAD+) / Primary screening (TSA) / delta Tm (K)” near -0.04, cut for the highest 2% near 0.37. The list shows a part of the results.
# Target: NAD-dependent deacetylase Sirtuin 1 (human, UniProt Q96EB6)
# Test: primary screen, delta tm
# Parameters: single well (n = 1, as 'the same TSA')
# Conditions: 10 µM
row,Compound,TSA(with NAD+) / Primary screening (TSA) / delta Tm (K)
1,CN(C(=O)Cc1ccc(NC(=O)NCc2ccc(-n3cncn3)nc2)cc1)c1ccccc1,-0.06
2,Cc1nc(-c2ccsc2)sc1C(=O)NCc1ccc(N2CCOCC2)c(F)c1,0.06
3,COc1ccc2c(C=C3C(=O)NC(=O)NC3=O)cccc2c1,-0.22
4,O=C(Oc1ccccc1Cc1ccccc1)c1ccc2c(c1)S(=O)(=O)c1ccccc1C2=O,0.15
5,Cc1nc(CN2CCN(CC(=O)N(C)Cc3cccs3)CC2)no1,-0.06
6,COC(C)C(O)C(=O)O (stereo not drawn),-0.09
7,CCOc1ccc(-n2c(SCC(=O)c3[nH]c(C)c(C(C)=O)c3C)nc3ccccc3c2=O)cc1,0.01
8,COc1ccc(NC(=O)c2cccc(OCc3c(C)noc3C)c2)cc1OCc1cn2ccccc2n1,0.03
9,Cc1ccc(Nc2nnc(SCC(=O)Nc3cc(C)c(C)cc3[N+](=O)[O-])s2)cc1,0.11
10,O=C(CCc1ccccc1)NC1CCN(c2ccc([N+](=O)[O-])c3cccnc23)CC1,-0.21
11,CCN(CC)CCNC(=O)c1ccc(NC(=O)CC2CCCC2)cc1,0.01
12,CC(C)Cn1c(SCC(=O)Nc2sc3c(c2C(N)=O)CCC3)nnc1N1CCOCC1,-0.18
13,CCOc1ccc(C2C(C(=O)c3ccc(F)cc3)=C(O)C(=O)N2CCCN2CCOCC2)cc1OC (stereo not drawn),0.02
14,CC(=O)NC1CCCN(c2c(C)c(C)nc3ccccc23)C1 (stereo not drawn),-0.01
15,CNC1CCc2[nH]c3ccc(Cl)cc3c2C1 (stereo not drawn),-0.01
16,COc1cc(NC(C)C(=O)Nc2ccc(C(N)=O)cc2)cc(OC)c1OC (stereo not drawn),-0.15
17,CCc1ccc(CNC(=O)Nc2ccncc2C)cc1,-0.11
18,CN(c1ccccc1)S(=O)(=O)c1ccc(C(=O)Nc2cccc(S(=O)(=O)N3CCOCC3)c2)cc1,-0.01
19,CCc1ccc(OCC(=O)NNC(=O)Cc2ccc(OC)cc2)cc1,0.16

# 2 records picked at random from those above:
row,Compound,TSA(with NAD+) / Primary screening (TSA) / delta Tm (K)
6,COC(C)C(O)C(=O)O (stereo not drawn),-0.09
8,COc1ccc(NC(=O)c2cccc(OCc3c(C)noc3C)c2)cc1OCc1cn2ccccc2n1,0.03

# (continued)

row,Compound,TSA(with NAD+) / Primary screening (TSA) / delta Tm (K)
1,O=C(Cc1c[nH]c2ccccc12)Nc1ccc(N2CCN(Cc3ccccc3)CC2)cc1,-0.23
2,CN1CCN(CCc2cccc(NC(=O)C3CC3c3ccc4ccccc4c3)c2)CC1 (stereo not drawn),-0.03
3,COc1ccc(N2CCN(c3ncnc4sc5c(c34)CCC5)CC2)cc1,-0.19
4,c1ccc(-c2nc(CSc3nnc(NCc4ccco4)s3)cs2)nc1,-0.03
5,COc1cc(CN(C)C(=O)c2cccc(S(=O)(=O)N3CCCC3)c2)ccc1OCc1ccccc1,-0.26
6,Cc1ccc(C(=O)Nc2ccc(NC(=O)NCC3CCCO3)cc2)cn1 (stereo not drawn),0.55
7,O=C1/C(=C/c2ccc(Br)cc2)Oc2cc(O)ccc21,0.27
8,COc1cccc(/C=C2/COc3ccc(Br)cc3C2=O)c1OC(F)F,0.25
9,O=C(CCc1c[nH]c2ccccc12)Nc1ccc2nc[nH]c(=O)c2c1,0.27
10,COc1ccc(N(C)S(=O)(=O)c2cccc(C(=O)Nc3ccccc3-c3ccccc3)c2)cc1,0.17
11,CCOC(=O)C(C)N (stereo not drawn),-0.21
12,Cc1cc(=O)oc2cc(OCC(=O)N3CCc4ccccc4C3)ccc12,-0.12
13,NC(=O)Cn1nc(-n2cncn2)ccc1=O,-0.22
14,NC(=S)c1ccc(C(=O)NC2CCCc3cc(OC(F)F)ccc32)cc1 (stereo not drawn),-0.03
15,O=C(Cn1cnc2sc3c(c2c1=O)CCCCC3)N1CCc2ccccc21,0.08
16,N#C/C(=C\c1[nH]c2ccccc2c1Cl)C(N)=O,-0.09
17,O=C(Nc1ccc2c(c1)OC1(CCCC1)O2)c1cc(O)nc2ccccc12,-0.03
18,CCNC(=O)CSc1nnc(-c2c[nH]c3ccccc23)n1Cc1ccco1,-0.21
19,CC(C)Cn1c(SC(C)C(=O)Nc2sc3c(c2C(N)=O)CCC3)nnc1N1CCOCC1 (stereo not drawn),0.09

row,Compound,TSA(with NAD+) / Primary screening (TSA) / delta Tm (K)
1,CC(NC(=O)c1ccc2c(c1)C(=O)c1ccccc1-2)C1CC2CCC1C2 (stereo not drawn),-0.06
2,COc1ccc(S(=O)(=O)N2CCOCC2)cc1NC(=O)c1ccccc1SCC(=O)NC12CC3CC(CC(C3)C1)C2,-0.05
3,Cc1cc(C)cc(C(=O)Nc2cccc(S(=O)(=O)N3CCCCCC3)c2)c1,0.15
4,CN(C)C(=O)CCNc1ncnc2ccsc12,-0.16
5,CN(Cc1nc2ccccc2s1)C(=O)CSc1nnc(C2COc3ccccc3O2)o1 (stereo not drawn),-0.16
6,CN(c1cccnc1)S(=O)(=O)c1cccc(-n2cnnn2)c1,0.05
7,Cc1ccc(C23CC4CC(CC(C(=O)OCC(=O)Nc5ccc(S(N)(=O)=O)cc5)(C4)C2)C3)cc1,0.29
8,O=C1CCC(=O)N(c2ccc(C(=O)NC34CC5CC(CC(C5)C3)C4)cc2)N1,0.11
9,COc1ccc(CCSc2nc3ccsc3c(=O)n2C)cc1,-0.03
10,COc1ccc(-c2noc(CN3CCN(c4ncnc5scc(-c6ccccc6)c45)CC3)n2)cc1,-0.16
11,c1nc(N2CCN(Cc3csc(-c4ccsc4)n3)CC2)c2c3c(sc2n1)CCCC3,0.05
12,COc1ccc(N(C)S(=O)(=O)c2cccc(C(=O)Nc3cccc(Br)c3)c2)cc1,0.32
13,O=C1NC(=O)C(c2ccccc2)(C(F)(F)F)N1 (stereo not drawn),-0.16
14,COc1ccc(C(=O)C2=C(O)C(=O)N(CCN3CCOCC3)C2c2ccc(Cl)cc2)c(O)c1 (stereo not drawn),-0.04
15,NC(=O)N(Cc1ccccc1)Cc1ccccc1,-0.11
16,CC(OC(=O)Cc1c[nH]c2ccccc12)C(=O)Nc1ccc(C(N)=O)cc1 (stereo not drawn),0.12
17,CN(c1cccc(Cl)c1)S(=O)(=O)c1cccc(C(=O)Nc2sccc2C(N)=O)c1,0.22
18,COc1ccc(NC(=O)c2cccc(S(=O)(=O)NC(C)C34CC5CC(CC(C5)C3)C4)c2)cc1S(=O)(=O)N1CCOCC1 (stereo not drawn),0.32
19,CN(CC(=O)NCc1ccco1)CC(=O)Nc1nc(-c2c[nH]c3ccccc23)cs1,-0.23
